Reference: publication PMC11884936, “MDC1 mediates Pellino recruitment to sites of DNA double-strand breaks” (Life Science Alliance, 2025)
No constants are given. Whether binding was seen depends on the method and setting. In cells and extracts the contact can be indirect. Some entries that bind do so weakly or less than the wild type.

Target: T1, MDC1-[p]T699 biotinylated phosphopeptide (Biotin-SGS-…[p]TQCFLE-NH2) (human)
T1 sequence (peptide, biotin on the N-terminus; phosphothreonine at T699; C-terminal amide): SGSDSEDLDLQATQCFLE
Assay: pull-down; biotinylated peptide on streptavidin Dynabeads, incubated with HeLa nuclear extract 4 h at 4°C; SDS-PAGE and Western blot; only the target purified

B1: RNF8 (endogenous, HeLa nuclear extract) (protein, UniProt O76064 1-485)
chain: MGEPGFFVTGDRAGGRSWCLRRVGMSAGWLLLEDGCEVTVGRGFGVTYQLVSKICPLMISRNHCVLKQNPEGQWTIMDNKSLNGVWLNRARLEPLRVYSIHQGDYIQLGVPLENKENAEYEYEVTEEDWETIYPCLSPKNDQMIEKNKELRTKRKFSLDELAGPGAEGPSNLKSKINKVSCESGQPVKSQGKGEVASTPSDNLDPKLTALEPSKTTGAPIYPGFPKVTEVHHEQKASNSSASQRSLQMFKVTMSRILRLKIQMQEKHEAVMNVKKQTQKGNSKKVVQMEQELQDLQSQLCAEQAQQQARVEQLEKTFQEEEQHLQGLEIAQGEKDLKQQLAQALQEHWALMEELNRSKKDFEAIIQAKNKELEQTKEEKEKMQAQKEEVLSHMNDVLENELQCIICSEYFIEAVTLNCAHSFCSYCINEWMKRKIECPICRKDIKSKTYSLVLDNCINKMVNNLSSEVKERRIVLIRERKAKRLF
binding: binds
